Measurements reported in PubChem BioAssay AID1259254 (NCATS, 2017)

- Screen: 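Finding genes that stop cells copying their DNA twice in one cycle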 (primary screen)
- Cell system: human HCT116 colorectal cancer cells
- Reagent: single siRNA against human genes
- Duration: 3 days
- Read-out: 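Imaged Hoechst DNA stain sorts each cell into a cycle phase by DNA amount; per plate, G2 fraction set to 0% for non-targeting and 100% for GMNN siRNA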
- Direction: G2 robust z-score: higher = more G2 cells, more excess DNA replication
- Call rule: 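Active siRNAs have a G2 robust z of 5 or more median absolute deviations over the median, which in these data means about 38% or higher of GMNN control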
Shown is a random part of about 59,000 reagents. About 1,550 of them (2.6%) were called active. 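G2 share is only a proxy for re-replication; each gene was hit by three separate siRNAs, and active genes were retested.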 Reagents against one gene are numbered here. Further read-outs or replicates are left out here. The record does not give: the amount of reagent.

target gene | reagent | G2 robust z-score | call
MDP1 | 1 | 1.96 | inactive
MDP1 | 2 | -0.678 | inactive
MDP1 | 3 | 3.16 | inactive
CCL16 | 1 | -1.2 | inactive
CCL16 | 2 | -0.45 | inactive
CCL16 | 3 | -0.215 | inactive
ZNF606 | 1 | -0.314 | inactive
ZNF606 | 2 | -0.872 | inactive
ZNF606 | 3 | -1.03 | inactive
TCEA3 | 1 | 2.47 | inactive
TCEA3 | 2 | 0.682 | inactive
TCEA3 | 3 | 7.84 | active
ZNF311 | 1 | 1.11 | inactive
ZNF311 | 2 | -0.345 | inactive
ZNF311 | 3 | -0.344 | inactive
LPAR2 | 1 | 2.69 | inactive
LPAR2 | 2 | 2.96 | inactive
LPAR2 | 3 | -0.409 | inactive
TTC28 | 1 | 0.254 | inactive
TTC28 | 2 | -0.143 | inactive
TTC28 | 3 | -0.998 | inactive
OR10G3 | 1 | -0.503 | inactive
OR10G3 | 2 | -0.331 | inactive
OR10G3 | 3 | 3.61 | inactive
BLTP1 | 1 | -0.852 | inactive
BLTP1 | 2 | -0.784 | inactive
BLTP1 | 3 | -0.401 | inactive
CIMIP4 | 1 | 1.52 | inactive
CIMIP4 | 2 | 0.193 | inactive
CIMIP4 | 3 | -0.0131 | inactive
CKAP4 | 1 | 4.45 | inactive
CKAP4 | 2 | -0.188 | inactive
CKAP4 | 3 | -0.718 | inactive
CKAP4 | 4 | -0.513 | inactive
CKAP4 | 5 | -0.216 | inactive
CKAP4 | 6 | 0.691 | inactive
LINC03040 | 1 | -0.758 | inactive
LINC03040 | 2 | -0.000991 | inactive
LINC03040 | 3 | 4 | inactive
ZBTB8OSP1 | 1 | 0.905 | inactive
ZBTB8OSP1 | 2 | 0.588 | inactive
ZBTB8OSP1 | 3 | -0.656 | inactive
CLDN3 | 1 | -0.179 | inactive
CLDN3 | 2 | -0.742 | inactive
CLDN3 | 3 | 0.0731 | inactive
FLVCR1 | 1 | 1.34 | inactive
FLVCR1 | 2 | 1.05 | inactive
FLVCR1 | 3 | -1.51 | inactive
CCDC7 | 1 | 5.9 | active
CCDC7 | 2 | -0.253 | inactive
CCDC7 | 3 | -0.33 | inactive
CCDC7 | 4 | 1.14 | inactive
CCDC7 | 5 | -0.666 | inactive
CCDC7 | 6 | 0.937 | inactive
SNRPB | 1 | 9.43 | active
SNRPB | 2 | 1.4 | inactive
SNRPB | 3 | 0.82 | inactive

Part of the list above in another layout:
TTC28 #3
- G2 robust z-score: -0.998
- call: inactive

OR10G3 #1
- G2 robust z-score: -0.503
- call: inactive

OR10G3 #2
- G2 robust z-score: -0.331
- call: inactive

OR10G3 #3
- G2 robust z-score: 3.61
- call: inactive

BLTP1 #1
- G2 robust z-score: -0.852
- call: inactive

BLTP1 #2
- G2 robust z-score: -0.784
- call: inactive

Additional records follow:
target gene | reagent | G2 robust z-score | call
TSPAN3 | 1 | -0.288 | inactive
TSPAN3 | 2 | -0.269 | inactive
TSPAN3 | 3 | -0.294 | inactive
SPP2 | 1 | -0.99 | inactive
SPP2 | 2 | 0.306 | inactive
SPP2 | 3 | -0.288 | inactive
KRTAP8-1 | 1 | 0.748 | inactive
KRTAP8-1 | 2 | 0.343 | inactive
KRTAP8-1 | 3 | -0.247 | inactive
ZNF74 | 1 | -0.743 | inactive
ZNF74 | 2 | 1.39 | inactive
ZNF74 | 3 | 0.218 | inactive
PPP2R5B | 1 | 1.96 | inactive
PPP2R5B | 2 | 0.339 | inactive
PPP2R5B | 3 | 1.31 | inactive
TCF12-DT | 1 | 2.73 | inactive
TCF12-DT | 2 | 6 | active
TCF12-DT | 3 | -0.745 | inactive
LAMA1 | 1 | -0.827 | inactive
LAMA1 | 2 | -0.18 | inactive
LAMA1 | 3 | 4.51 | inactive
GALNT4 | 1 | -1.28 | inactive
GALNT4 | 2 | 1.88 | inactive
GALNT4 | 3 | -0.871 | inactive
DHRS7 | 1 | 0.0699 | inactive
DHRS7 | 2 | -1.05 | inactive
DHRS7 | 3 | 0.881 | inactive
IMMT | 1 | -0.251 | inactive
IMMT | 2 | 0.651 | inactive
IMMT | 3 | -0.347 | inactive
